# Measured values from PubChem BioAssay AID493014 (National Center for Advancing Translational Sciences (NCATS), 2011).
# This is one part of the list. These are further read-outs of the screen, such as a control signal, another cell line or another target. No call is given for them. The list favours compounds with an active or inconclusive main result. The note in brackets gives the kind of curve behind each potency; many fits are weak.
# Assay: qHTS Assay to Find Inhibitors of Chronic Active B-Cell Receptor Signaling
# Conditions: ABC-DLBCL IkBa-CBG/CBR reporter, luminescence ratio (green luciferase fused to IkBa over red control in TMD8 lymphoma cells), 4 h
# Method in brief: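 Doxycycline induced both beetle luciferases in TMD8 lymphoma cells; IKK-driven degradation limits the IkappaBalpha-fused green signal, while red luminescence normalises for cell number and nonspecific effects. Compounds tested up to 46 uM, 4 hrs.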
# [1] = measured here: CBR red luminescence, cell number
# [2] = measured here: IkBa-CBG green luminescence
structure (smiles),measurement,setting,value
CC(C)CC(=O)n1sc(NC(=O)c2ccccc2)nc1=O,AC50,[1],"7.08 µM [falling, partial curve, poor fit]"
CC(OC(=O)c1ccc(Cl)c([N+](=O)[O-])c1)C(=O)N1CCN(Cc2ccccc2)CC1 (centres undefined),AC50,[1],"29.1 µM [falling, single point]"
CCCCCN(C(=O)CCC(=O)OC(C)C(=O)NC1CCCCC1)c1c(N)n(CCCC)c(=O)[nH]c1=O (centres undefined),AC50,[1],"4.61 µM [falling, partial curve, poor fit]"
O=C1NCC(c2ccccc2)C1C(=O)N/N=C\c1ccc(-c2cccc(Cl)c2Cl)o1 (centres undefined),AC50,[1],"9.2 µM [falling, partial curve, poor fit]"
COc1ccc(S(=O)(=O)Nc2nccs2)cc1OC,AC50,[1],"35.5 µM [rising, single point]"
O=[N+]([O-])c1ccc(N2N=C(c3ccccc3)CC2c2ccccc2O)cc1 (centres undefined),AC50,[1],"28.2 µM [falling, single point]"
CCOc1ccc(-c2nc(C#N)c(N3CCN(C)CC3)o2)cc1,AC50,[1],"20.6 µM [rising, partial curve, poor fit]"
CCOc1ccc(NS(=O)(=O)CC23CCC(CC2=O)C3(C)C)cc1 (centres undefined),AC50,[1],"32.6 µM [falling, single point]"
O=C(N/N=C/c1coc2ccccc2c1=O)c1cc2ccccc2o1,AC50,[1],"16.4 µM [falling, partial curve]"
CN(C)c1cc[n+](CC(=O)c2ccc(OC(F)F)cc2)cc1,AC50,[1],"0.794 µM [rising, full curve, poor fit]"
CCOC(=O)N1CCN(C(=O)CS(=O)Cc2nc(-c3cccc(C)c3)oc2C)CC1 (centres undefined),AC50,[1],"6.51 µM [falling, single point]"
Fc1ccccc1NC(=S)N(CCN1CCCCCC1)Cc1cccs1,AC50,[1],"35.5 µM [falling, partial curve, poor fit]"
O=C(Nc1cc(C(F)(F)F)ccc1Cl)C(Sc1cccc[n+]1[O-])c1ccccc1 (centres undefined),AC50,[1],"29.1 µM [falling, single point]"
same,AC50,[2],"29.1 µM [falling, single point]"
Cc1cc(NC(=O)COC(=O)c2cccc(S(=O)(=O)N(C)C3CCCCC3)c2)no1,AC50,[1],"5.62 µM [rising, single point]"
CCOc1ccc(C2c3c(oc4ccccc4c3=O)C(=O)N2CCCN2CCOCC2)cc1 (centres undefined),AC50,[1],"29.1 µM [rising, single point]"
COC(=O)C1C(=O)C2=C(CC1C)NC(C)=C(C(=O)OCCOc1ccccc1)C2c1ccc(C)o1 (centres undefined),AC50,[1],"29.1 µM [falling, single point]"
Cc1ccccc1-n1c(SCC(=O)Nc2ccccc2Cl)nc2n[nH]c(C)c2c1=N,AC50,[1],"11.2 µM [rising, partial curve, poor fit]"
CCN(C(=O)c1ccc2c(SCC(=O)O)c3c(nc2c1)CCC3)c1cc(Cl)ccc1OC,AC50,[1],"3.55 µM [falling, partial curve, poor fit]"
CCn1c(C)csc1=NC(=O)c1ccccc1O,AC50,[1],"1.16 µM [rising, partial curve, poor fit]"
CN1CCN(C(=O)CN(CCc2ccccc2)S(C)(=O)=O)CC1,AC50,[1],"32.6 µM [rising, single point]"
O=C(CCCCCNC(=S)Nc1ccccc1)C[N+](=O)[O-],AC50,[1],"12.6 µM [falling, partial curve]"
COc1ccc2c(c1)OC1(C)CC2C(C(=O)c2ccccc2OC)C(=O)N1 (centres undefined),AC50,[1],"23.1 µM [rising, single point]"
O=C(NCCCN1CCCC1=O)c1cn(-c2ccccc2)nc1-c1ccccc1,AC50,[1],"7.08 µM [rising, partial curve, poor fit]"
CCc1ccc(-c2cc(C)no2)cc1S(=O)(=O)NCCCN1CCN(c2ccccc2)CC1,AC50,[1],"15.8 µM [falling, partial curve, poor fit]"
Cc1noc(C)c1S(=O)(=O)N1CCC(C(=O)N2CCC(N3CCCCC3)CC2)CC1,AC50,[1],"5.62 µM [rising, single point]"
COC(=O)c1ccc(Nc2ncnc3c2cnn3C)cc1,AC50,[1],"1.26 µM [rising, full curve, poor fit]"
Cc1cc2nc(SCC(=O)N(C)C)c3c(c2cc1C)CCCC3,AC50,[1],"35.5 µM [falling, single point]"
same,AC50,[2],"12.6 µM [rising, partial curve, poor fit]"
COc1ccc(C(=O)N/N=C(\C)CC(=O)Nc2ccc3c(c2)OCO3)cc1,AC50,[1],"35.5 µM [falling, single point]"
CCN(CCNC(=O)C1=C(C)C(=O)OC12CCC(C)CC2)c1ccccc1 (centres undefined),AC50,[1],"35.5 µM [rising, single point]"
Cc1cc(=O)oc2cc(NC(=O)CCOc3ccccc3)ccc12,AC50,[1],"14.1 µM [rising, partial curve]"
Cc1nnc(SCC(=O)n2c3c(c4ccccc42)CCCC3)s1,AC50,[1],"3.16 µM [falling, partial curve, poor fit]"
N=c1n(CCCOc2ccc(Br)cc2)c2ccccc2n1CC(N)=O,AC50,[1],"10 µM [falling, partial curve, poor fit]"
Cc1ccc2c(COC(=O)CNC(=O)c3ccco3)cc(=O)oc2c1C,AC50,[1],"23.1 µM [rising, partial curve, poor fit]"
Cc1ccc(S(=O)(=O)NCCC(=O)OCC(=O)Nc2cccc(S(=O)(=O)NC3=NCCCCC3)c2)cc1,AC50,[1],"0.1 µM [rising, full curve, poor fit]"
COc1ccc(COc2ccsc2C(=O)Nc2ccc(Cl)c(Cl)c2)cc1,AC50,[1],"5.62 µM [rising, partial curve, poor fit]"
Cc1ccnc(SCCn2c(N3CCCCC3)nc3c2c(=O)n(C)c(=O)n3C)n1,AC50,[1],"0.447 µM [rising, full curve, poor fit]"
Cc1noc(C)c1-c1ccc2ncnc(NCC3CCCCN3C)c2c1 (centres undefined),AC50,[1],"5.8 µM [rising, partial curve, poor fit]"
O/N=C(\c1ccc(Cl)cc1Cl)c1ncc(C(F)(F)F)cc1Cl,AC50,[1],"0.092 µM [rising, full curve]"
COc1cccc(-c2nc3ccccc3s2)c1,AC50,[1],"3.66 µM [rising, full curve, poor fit]"
Cc1nc(-c2ccccc2)sc1C1(C)CC(c2c(Cl)cccc2Cl)=NO1 (centres undefined),AC50,[1],"2 µM [rising, partial curve]"
CC(C)(C)c1ccc(OCCOc2ccc(C(C)(C)C)cc2NC=O)c(NC=O)c1,AC50,[1],"22.4 µM [falling, partial curve, poor fit]"
COc1ccc(N=C2S/C(=C\c3ccc(Cl)c([N+](=O)[O-])c3)C(=O)N2CCN(C)C)cc1,AC50,[1],"8.91 µM [falling, partial curve, poor fit]"
CC(=O)Nc1ccc(SCC(=O)OCC(=O)NC(=O)NCc2ccco2)cc1,AC50,[1],"17.8 µM [rising, single point]"
Cc1ccc(C(=O)O/N=C(\N)c2ccccn2)cc1,AC50,[1],"1.26 µM [falling, full curve]"
COc1ccc(C(=O)Nn2c(SCC(=O)N3CCC(C)CC3)nc3ccccc3c2=O)cc1,AC50,[1],"3.16 µM [falling, full curve, poor fit]"
CCn1c(COc2ccc3c(c2)OCO3)nnc1SCC(=O)c1ccc(Cl)cc1,AC50,[1],"2.91 µM [rising, single point]"
CCCN(CC(=O)Nc1ccccc1C)CC(=O)Nc1ccc(Br)cc1F,AC50,[1],"12.6 µM [falling, single point]"
OC(CNc1nc(C(F)(F)F)nc2ccccc12)c1ccccc1 (centres undefined),AC50,[1],"14.1 µM [falling, single point]"
CC(C)c1ccc(S(=O)(=O)/N=C2\C=C(NS(=O)(=O)c3ccccc3)C(=O)c3ccccc32)cc1,AC50,[1],"25.1 µM [falling, single point]"
CCCCc1cc(=O)oc2cc(C)cc(O)c12,AC50,[1],"3.16 µM [rising, partial curve, poor fit]"
Cn1c(=O)c(C(=O)Nc2cnccn2)c(O)c2ccccc21,AC50,[1],"11.2 µM [falling, partial curve]"
COc1cccc(Nc2nc3ccccc3n3nnnc23)c1,AC50,[1],"4.11 µM [rising, partial curve, poor fit]"
CCCN(CC(=O)Nc1ccccc1OC)C(=O)c1ccc(=O)[nH]c1,AC50,[1],"6.31 µM [falling, single point]"
S=C(NCCN1CCOCC1)NC1CCCCC1,AC50,[1],"0.398 µM [rising, full curve, poor fit]"
CN1CCN(CCC=C2c3ccccc3Sc3ccc(S(=O)(=O)N(C)C)cc32)CC1,AC50,[1],"29.1 µM [falling, single point]"
Cc1cc(-c2nnc(-c3cccc(C(F)(F)F)c3)o2)no1,AC50,[1],"0.562 µM [rising, full curve, poor fit]"
CCCNC(=O)Nc1cc(OC)c(OC)cc1Cc1nccc2cc(OC)c(OC)cc12,AC50,[2],"17.8 µM [falling, partial curve, poor fit]"
CCn1ncc(Br)c1C(=O)Nc1ccn(C23CC4CC(CC(C4)C2)C3)n1,AC50,[1],"8.2 µM [rising, partial curve, poor fit]"
COCCn1c(-c2ccc(SC)cc2)nc2c1c(=O)[nH]c(=O)n2CC(C)C,AC50,[1],"0.224 µM [rising, full curve, poor fit]"
O=C(O)c1c(-n2cccc2)sc2c1CCCC2,AC50,[1],"5.62 µM [rising, single point]"
CC12CCC(=O)N1C(C(=O)Nc1nc(-c3ccccc3)cs1)CS2 (centres undefined),AC50,[1],"0.0731 µM [falling, full curve, poor fit]"
CCOc1ccc(NC(=O)c2ccc(NS(=O)(=O)c3cccs3)cc2)cc1,AC50,[1],"11.2 µM [falling, partial curve]"

# Quoted from the listing for reference:
structure (smiles),measurement,setting,value
Cc1ccccc1-n1c(SCC(=O)Nc2ccccc2Cl)nc2n[nH]c(C)c2c1=N,AC50,[1],"11.2 µM [rising, partial curve, poor fit]"
CCN(C(=O)c1ccc2c(SCC(=O)O)c3c(nc2c1)CCC3)c1cc(Cl)ccc1OC,AC50,[1],"3.55 µM [falling, partial curve, poor fit]"

# Shown with tabs: part of the list above.
structure (smiles)	measurement	setting	value
CN(C)c1cc[n+](CC(=O)c2ccc(OC(F)F)cc2)cc1	AC50	[1]	0.794 µM [rising, full curve, poor fit]
CCOC(=O)N1CCN(C(=O)CS(=O)Cc2nc(-c3cccc(C)c3)oc2C)CC1 (centres undefined)	AC50	[1]	6.51 µM [falling, single point]
